PubChem BioAssay AID504774, Drosophila RNAi Screening Center, 2011
Purpose: 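Fly genes whose loss alters survival after alkylation damage to DNA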 (primary screen). System: Drosophila Kc167 cells. Reagent: long dsRNA against Drosophila genes, about 0.25 µg dsRNA per well. Time to read-out: about 6 days: 3 days knock-down, then 3 days with or without MMS. Challenge: methyl methanesulphonate 0.004% (w/v) for 3 days after knock-down. Measured: 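Viability in wells given MMS, read as ATP luminescence, normalised by quantiles plate by plate and averaged across replicates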. Direction: mean viability with MMS and viability with MMS: higher = more surviving cells after MMS.
The screen tested about 23,000 reagents; this is a random part of those with a known target gene and a result. 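Values are quantile-normalised luminescence on an arbitrary scale; higher means more cells surviving MMS.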 A plus sign joins genes that one reagent is predicted to hit. No sequences are given here.

gene knocked down | dsRNA | mean viability with MMS | viability with MMS, replicate 1 | viability with MMS, replicate 2
defl | DRSC10300 | 3.15e6 | 3.67e6 | 3.61e6
Mco1 | DRSC02720 | 3.82e6 | 4.09e6 | 4.62e6
Kif3C | DRSC17209 | 3.56e6 | 4.04e6 | 4.03e6
Kif3C | DRSC17210 | 3.43e6 | 3.82e6 | 3.97e6
Psf2 | DRSC00516 | 3.81e6 | 4.49e6 | 3.97e6
CG1847 | DRSC19810 | 3.47e6 | 4.07e6 | 3.25e6
spg | DRSC14373 | 3.59e6 | 4.16e6 | 3.99e6
spg | DRSC14881 | 3.52e6 | 4.13e6 | 3.83e6
l(3)72Dn | DRSC10468 | 3.46e6 | 3.91e6 | 3.92e6
scrt | DRSC08736 | 3.02e6 | 3.57e6 | 3.60e6
scrt | DRSC23001 | 3.76e6 | 4.14e6 | 4.39e6
Csas | DRSC22390 | 3.37e6 | 3.85e6 | 3.92e6
Or65c | DRSC21312 | 3.40e6 | 3.78e6 | 3.99e6
ninaC | DRSC03579 | 3.51e6 | 3.88e6 | 4.06e6
CG3224 | DRSC18295 | 3.44e6 | 3.88e6 | 3.92e6
Mal-B2 | DRSC02417 | 1.90e6 | 4.12e6 | 4.00e6
CG11168 | DRSC14292 | 3.58e6 | 4.13e6 | 3.98e6
Obp56d | DRSC06064 | 3.49e6 | 3.97e6 | 3.93e6
CG42372 + CG30100 | DRSC05602 | 3.63e6 | 4.14e6 | 4.06e6
SdhC | DRSC16088 | 3.57e6 | 4.03e6 | 4.05e6
cona | DRSC16281 | 3.58e6 | 4.05e6 | 4.06e6
CG32284 | DRSC08025 | 3.61e6 | 3.91e6 | 4.27e6
CG10979 | DRSC12153 | 3.63e6 | 4.18e6 | 4.03e6
flfl | DRSC16474 | 3.44e6 | 3.84e6 | 3.91e6
CG15580 | DRSC12266 | 3.57e6 | 4.10e6 | 3.99e6
CG10597 | DRSC19357 | 3.26e6 | 3.61e6 | 3.65e6
CG34112 | DRSC12235 | 3.73e6 | 4.13e6 | 4.22e6
Eip63E | DRSC08658 | 3.61e6 | 4.31e6 | 3.87e6
CG9973 (retired record) | DRSC08646 | 3.34e6 | 3.83e6 | 3.79e6
CG32391 | DRSC08865 | 3.62e6 | 3.94e6 | 4.24e6
CG4950 | DRSC10463 | 3.40e6 | 3.83e6 | 3.83e6
neb | DRSC03577 | 3.40e6 | 4.01e6 | 3.63e6

Entries listed so far whose target name begins with N or n:
gene knocked down | dsRNA | mean viability with MMS | viability with MMS, replicate 1 | viability with MMS, replicate 2
ninaC | DRSC03579 | 3.51e6 | 3.88e6 | 4.06e6
neb | DRSC03577 | 3.40e6 | 4.01e6 | 3.63e6

Further entries follow.
gene knocked down | dsRNA | mean viability with MMS | viability with MMS, replicate 1 | viability with MMS, replicate 2
CG7300 | DRSC03044 | 3.48e6 | 3.95e6 | 3.93e6
Crys | DRSC03294 | 3.53e6 | 4.00e6 | 4.02e6
Rab32 | DRSC05146 | 3.45e6 | 3.88e6 | 3.91e6
Rab32 | DRSC07522 | 3.55e6 | 4.12e6 | 3.93e6
Ncoa6 | DRSC02353 | 2.27e6 | 2.54e6 | 2.54e6
Ncoa6 | DRSC23060 | 3.57e6 | 3.94e6 | 4.18e6
Cngl | DRSC20318 | 3.31e6 | 3.71e6 | 3.70e6
CG30419 | DRSC04208 | 3.52e6 | 4.03e6 | 3.96e6
CG30419 | DRSC04209 | 3.60e6 | 3.91e6 | 3.80e6
CG30419 | DRSC22519 | 3.48e6 | 3.93e6 | 4.01e6
CG12519 | DRSC10311 | 3.56e6 | 4.04e6 | 4.04e6
CG12519 | DRSC21549 | 3.55e6 | 4.01e6 | 4.06e6
TpnC47D | DRSC07564 | 3.41e6 | 3.92e6 | 3.71e6
CG34247 | DRSC09933 | 3.65e6 | 4.14e6 | 4.10e6
CYLD | DRSC02870 | 3.98e6 | 4.56e6 | 4.55e6
CG7457 | DRSC10849 | 3.60e6 | 4.03e6 | 4.16e6
GILT1 | DRSC16565 | 3.41e6 | 3.97e6 | 3.72e6
CG7611 | DRSC11840 | 3.60e6 | 3.99e6 | 4.16e6
CG15699 (retired record) | DRSC06571 | 3.80e6 | 4.27e6 | 4.26e6
Rab9Db + Rab9D + Rab9E | DRSC17656 | 3.54e6 | 4.06e6 | 3.97e6
CG32772 | DRSC18052 | 3.53e6 | 4.00e6 | 4.03e6
CG32772 | DRSC18406 | 3.61e6 | 3.99e6 | 4.21e6
CG32772 | DRSC22349 | 3.60e6 | 4.01e6 | 4.12e6
CG17738 | DRSC15257 | 3.52e6 | 3.99e6 | 4.00e6
Pngl | DRSC04914 | 3.67e6 | 4.22e6 | 4.11e6
Rh4 | DRSC11268 | 3.56e6 | 4.05e6 | 4.01e6
CG7789 | DRSC16312 | 3.68e6 | 4.14e6 | 4.17e6
CG34183 | DRSC01099 | 3.36e6 | 3.80e6 | 3.76e6
gwl | DRSC16305 | 3.44e6 | 3.96e6 | 3.84e6
CG33332 | DRSC15504 | 3.39e6 | 3.83e6 | 3.84e6
sens-2 | DRSC02136 | 3.65e6 | 4.17e6 | 4.07e6
sens-2 | DRSC02613 | 3.55e6 | 4.02e6 | 4.01e6
sens-2 | DRSC21374 | 2.59e6 | 3.59e6 | 3.63e6
Acbp3 | DRSC11022 | 3.72e6 | 4.14e6 | 4.27e6
Nepl18 | DRSC14879 | 3.59e6 | 4.09e6 | 4.05e6
CG8065 | DRSC10959 | 3.47e6 | 3.87e6 | 3.99e6
